Two substances from article PMC8385639 can be followed below.

Chains of the proteins cited; added tags and fusions are not shown.
UniProt Q9W6S8: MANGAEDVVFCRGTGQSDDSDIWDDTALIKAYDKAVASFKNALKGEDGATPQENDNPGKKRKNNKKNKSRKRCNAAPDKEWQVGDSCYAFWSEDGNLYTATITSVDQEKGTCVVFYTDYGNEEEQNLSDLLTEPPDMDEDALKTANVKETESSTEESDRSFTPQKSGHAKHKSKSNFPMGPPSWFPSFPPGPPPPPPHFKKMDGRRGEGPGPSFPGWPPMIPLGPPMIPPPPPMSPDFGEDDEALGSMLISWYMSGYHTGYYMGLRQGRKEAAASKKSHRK

For this assay, the target named is mCherry-Smn (transfected SH-SY5Y cells) (zebrafish) (UniProt Q9W6S8). In words: fluorescence correlation spectroscopy (brightness analysis); confocal FCS in the cytoplasm of transfected SH-SY5Y cells; average intensity plotted against number of particles; mCherry-Smn against mCherry, and mCherry-Smn with co-transfected untagged Smn (125 ng of each plasmid).

These are yes or no findings as the source states them, for the method shown. Some results given as binding are weak or reduced against the parent protein; the word gives no strength.

With “mCherry-Smn (transfected SH-SY5Y cells) (from UniProt Q9W6S8 1-281)”, the binding entry is given as “binds”.
For “untagged Smn (transfected SH-SY5Y cells) (from UniProt Q9W6S8 1-281)”, the binding entry is listed as “binds”.
